Measured values published in PMC3540084.

Amino acid sequences for entries named in this document (tags omitted). A change or cut given only in a name is not applied to a line headed by its entry.
UniProt Q8C3Q9: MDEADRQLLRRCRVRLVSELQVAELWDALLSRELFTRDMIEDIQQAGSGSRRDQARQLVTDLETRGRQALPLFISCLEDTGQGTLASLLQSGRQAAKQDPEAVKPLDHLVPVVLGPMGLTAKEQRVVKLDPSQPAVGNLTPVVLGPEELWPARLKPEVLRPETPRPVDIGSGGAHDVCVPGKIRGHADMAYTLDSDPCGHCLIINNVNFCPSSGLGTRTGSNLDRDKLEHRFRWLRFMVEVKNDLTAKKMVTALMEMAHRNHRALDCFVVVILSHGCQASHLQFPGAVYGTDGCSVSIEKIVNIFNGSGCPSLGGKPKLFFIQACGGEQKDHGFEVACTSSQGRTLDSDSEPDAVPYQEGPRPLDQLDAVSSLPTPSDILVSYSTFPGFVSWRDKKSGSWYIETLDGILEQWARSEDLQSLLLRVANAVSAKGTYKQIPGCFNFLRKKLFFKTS
UniProt P10749: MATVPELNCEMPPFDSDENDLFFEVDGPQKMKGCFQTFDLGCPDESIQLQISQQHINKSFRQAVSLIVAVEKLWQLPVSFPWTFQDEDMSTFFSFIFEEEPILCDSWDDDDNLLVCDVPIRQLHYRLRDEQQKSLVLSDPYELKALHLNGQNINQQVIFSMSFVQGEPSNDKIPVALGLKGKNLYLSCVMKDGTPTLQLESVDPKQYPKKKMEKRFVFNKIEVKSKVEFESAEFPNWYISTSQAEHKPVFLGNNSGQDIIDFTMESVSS

How the values were obtained:
Assay in all cases: co-IP; cytosols of cultured HL-1 cardiomyocytes after 6 hr hypoxia; polyclonal Abs to IL-1Ra, caspases or control IL-1beta coupled to Sepharose beads plus protein A/G; precipitates washed in PBS; Western blot with monoclonal Abs; IP compared to unbound (free) supernatant proteins
[1] = target: caspase-9 (mouse) (mouse (endogenous in HL-1)) (UniProt Q8C3Q9)
[2] = target: T1, caspase-6 (mouse) (mouse (endogenous in HL-1)) (UniProt O08738)
T1 sequence: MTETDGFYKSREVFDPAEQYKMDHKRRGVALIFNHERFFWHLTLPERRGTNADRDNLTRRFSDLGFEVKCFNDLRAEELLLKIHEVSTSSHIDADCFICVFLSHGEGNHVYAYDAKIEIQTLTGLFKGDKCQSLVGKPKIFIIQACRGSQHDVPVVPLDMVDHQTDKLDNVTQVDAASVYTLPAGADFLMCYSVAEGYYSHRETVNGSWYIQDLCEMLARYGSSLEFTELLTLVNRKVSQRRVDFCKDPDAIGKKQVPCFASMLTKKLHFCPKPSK

[3] = target: T2, caspase-7 (mouse) (mouse (endogenous in HL-1)) (UniProt P97864)
T2 sequence: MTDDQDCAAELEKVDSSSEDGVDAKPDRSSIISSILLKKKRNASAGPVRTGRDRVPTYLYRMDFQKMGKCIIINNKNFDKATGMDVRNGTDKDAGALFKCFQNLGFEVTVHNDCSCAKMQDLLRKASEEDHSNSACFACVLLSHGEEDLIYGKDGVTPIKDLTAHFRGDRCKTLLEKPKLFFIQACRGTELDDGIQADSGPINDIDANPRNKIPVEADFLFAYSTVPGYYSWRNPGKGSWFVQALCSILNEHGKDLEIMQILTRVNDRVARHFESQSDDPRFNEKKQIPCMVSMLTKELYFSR

[4] = target: T3, caspase-3 (mouse) (mouse (endogenous in HL-1)) (UniProt P70677)
T3 sequence: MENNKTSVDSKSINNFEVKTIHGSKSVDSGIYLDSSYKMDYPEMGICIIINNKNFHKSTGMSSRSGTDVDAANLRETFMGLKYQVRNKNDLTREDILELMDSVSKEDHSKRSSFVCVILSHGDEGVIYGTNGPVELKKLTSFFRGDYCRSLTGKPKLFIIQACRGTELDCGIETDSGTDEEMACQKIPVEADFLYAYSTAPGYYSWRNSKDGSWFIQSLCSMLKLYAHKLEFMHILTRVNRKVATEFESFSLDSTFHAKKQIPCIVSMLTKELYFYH

[5] = target: intracellular IL-1Ra isoform (mouse interleukin-1 receptor antagonist) (mouse (endogenous in HL-1))

Molecule	binding [1]	binding [2]	binding [3]	binding [4]	binding [5]
IL-1beta (mouse) (from UniProt P10749)	no binding	no binding	no binding	no binding	–
intracellular IL-1Ra isoform (mouse interleukin-1 receptor antagonist)	–	binds weakly	binds weakly	binds	–
secreted IL-1Ra isoform (mouse interleukin-1 receptor antagonist) (protein, UniProt P25085 27-178) RPSGKRPCKMQAFRIWDTNQKTFYLRNNQLIAGYLQGPNIKLEEKIDMVPIDLHSVFLGIHGGKLCLSCAKSGDDIKLQLEEVNITDLSKNKEEDKRFTFIRSEKGPTTSFESAACPGWFLCTTLEADRPVSLTNTPEEPLIVTKFYFQEDQ	binds	–	–	–	–
IL-1R1 ancillary protein (mouse) (receptor, UniProt Q61730 21-570) SERCDDWGLDTMRQIQVFEDEPARIKCPLFEHFLKYNYSTAHSSGLTLIWYWTRQDRDLEEPINFRLPENRISKEKDVLWFRPTLLNDTGNYTCMLRNTTYCSKVAFPLEVVQKDSCFNSAMRFPVHKMYIEHGIHKITCPNVDGYFPSSVKPSVTWYKGCTEIVDFHNVLPEGMNLSFFIPLVSNNGNYTCVVTYPENGRLFHLTRTVTVKVVGSPKDALPPQIYSPNDRVVYEKEPGEELVIPCKVYFSFIMDSHNEVWWTIDGKKPDDVTVDITINESVSYSSTEDETRTQILSIKKVTPEDLRRNYVCHARNTKGEAEQAAKVKQKVIPPRYTVELACGFGATVFLVVVLIVVYHVYWLEMVLFYRAHFGTDETILDGKEYDIYVSYARNVEEEEFVLLTLRGVLENEFGYKLCIFDRDSLPGGIVTDETLSFIQKSRRLLVVLSPNYVLQGTQALLELKAGLENMASRGNINVILVQYKAVKDMKVKELKRAKTVLTVIKWKGEKSKYPQGRFWKQLQVAMPVKKSPRWSSNDKQGLSYSSLKNV	–	–	–	–	no binding

No constants are given. Whether binding was seen depends on the method and setting. Binding seen in cells or lysates may run through a third protein. For part of these data: Binding can be weak; no strength is given. For part of these data: Tags and fused reporters may be left off the sequences shown.
